Experiments:
[1] = test system: primary human hepatocytes (PHH); experiment: Cytotoxicity (cellular ATP, CellTiter-Glo) in 2D plated primary human hepatocytes, 48 h treatment; format: cell-based; details: Hepatocyte, read-out: Geomean IC50;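 also: 384-well plates, luminescence read-out, normalized to vehicle wells with 1% DMSO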
[2] = test system: 3D human liver microtissues (hLiMT); experiment: Cytotoxicity (cellular ATP) in 3D human liver microtissues, 5-6 days treatment; format: cell-based; details: read-out: IC50 SHORT;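 also: Hanging-drop spheroids, seven-point dilution series, re-dosed on day 3, CellTiter-Glo 2.0 luminescence, normalized to 0.5 or 1% DMSO vehicle controls on the same plate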
[3] = human, in vivo; cited from earlier work
[4] = test system: 3D human liver microtissues (hLiMT); experiment: Cytotoxicity (cellular ATP, CellTiter-Glo 2.0) in 3D human liver microtissues, 14 day repeat-dose treatment; details: 336 h
[5] = Hepatocyte, read-out: Geomean IC50 [µM]

O=C1OCCN1/N=C/c1ccc([N+](=O)[O-])o1 [Furazolidone]
IC50 [1]: 68.3 µM | IC50 [2]: 64.9 µM | Cmax [3]: 1510 nM | IC50 ([4]; read-out: IC50 LONG): 42.9 µM | IC50 [4, 5]: ~42.9 µM

N=C(N)NCCN1CCCCCCC1 [Guanethidine]
IC50 [1]: > 10 µM | IC50 [4, 5]: > 10 µM

Source: publication PMC5515971, “Utility of spherical human liver microtissues for prediction of clinical drug-induced liver injury” (Archives of Toxicology, 2017)
